PubChem BioAssay AID1224829 | NIAID – 2016
Here is one part, drawn at random, of about 3,800 reagents. 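Calls cover raised and lowered translocation; gene median uses one vendor's three siRNAs; qiagen siRNAs acted more weakly than ambion siRNAs.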 A number with no mark means an inactive call. Reagents against one gene are numbered here. Reagent sequences are not shown.

Screen: 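Secondary check of hits that alter LPS-induced p65 translocation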 (follow-up of hits)
System: mouse RAW264.7 G9 macrophage reporter cells
Reagents: single siRNA against mouse genes, 100 nM
Timing: 2 days of siRNA knock-down, then 40 min of LPS before fixing
Conditions: LPS (Salmonella minnesota R595) at 10 ng/ml
Read-out: 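High-content images after 40 min LPS exposure; GFP-p65 nucleus to surrounding ring signal ratio, normalised to plate median and non-targeting control wells, expressed as z-score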
Reading the numbers: p65 translocation z-score and gene median z-score, per vendor: higher = more nuclear NF-kappaB p65 after LPS
Rule for the call: 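Active means the replicate-mean z-score lies beyond plus or minus 2, in either direction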
Calls: active = changed p65 translocation (either direction); inactive = no clear change

| Gene | reagent | siRNA vendor or control pool | p65 translocation z-score, replicate mean | p65 translocation z-score, replicate 1 | p65 translocation z-score, replicate 2 | gene median z-score, per vendor |
| --- | --- | --- | --- | --- | --- | --- |
| C9 | 1 | ambion single siRNA | -4.17 (active) | -3.02 | -5.32 | -2.87 |
| C9 | 2 | ambion single siRNA | -0.955 | -0.783 | -1.13 | -2.87 |
| C9 | 3 | ambion single siRNA | -3.5 (active) | -2.72 | -4.29 | -2.87 |
| C9 | 4 | qiagen single siRNA | 1.45 | 2.06 | 0.836 | 0.836 |
| C9 | 5 | qiagen single siRNA | 0.73 | 0.774 | 0.685 | 0.836 |
| C9 | 6 | qiagen single siRNA | 0.947 | 0.947 | – | 0.836 |
| Pepf | 1 | ambion single siRNA | -3.34 (active) | -3.29 | -3.4 | -2.12 |
| Pepf | 2 | ambion single siRNA | -1.74 | -1.37 | -2.12 | -2.12 |
| Pepf | 3 | ambion single siRNA | 0.241 | 0.241 | – | -2.12 |
| Pepf | 4 | qiagen single siRNA | 1.89 | 1.89 | 1.89 | -0.594 |
| Pepf | 5 | qiagen single siRNA | -3.07 (active) | -3.07 | – | -0.594 |
| Pepf | 6 | qiagen single siRNA | -4.35 (active) | -4.35 | – | -0.594 |
| Syk | 1 | ambion single siRNA | -2.04 (active) | -1.96 | -2.13 | -2.46 |
| Syk | 2 | ambion single siRNA | -2.46 (active) | -2.74 | -2.17 | -2.46 |
| Syk | 3 | ambion single siRNA | -5.48 (active) | -6.39 | -4.57 | -2.46 |
| Syk | 4 | qiagen single siRNA | -1.4 | -1.81 | -0.981 | -0.859 |
| Syk | 5 | qiagen single siRNA | 1.46 | 0.596 | 2.33 | -0.859 |
| Syk | 6 | qiagen single siRNA | -1.16 | -0.737 | -1.58 | -0.859 |
| Psmd4 | 1 | ambion single siRNA | -4.1 (active) | -2.16 | -6.04 | -1.72 |
| Psmd4 | 2 | ambion single siRNA | -1.82 | -1.28 | -2.36 | -1.72 |
| Psmd4 | 3 | ambion single siRNA | -0.12 | 0.294 | -0.534 | -1.72 |
| Psmd4 | 4 | qiagen single siRNA | 1.29 | 1.07 | 1.51 | 1.35 |
| Psmd4 | 5 | qiagen single siRNA | 2.69 (active) | 1.2 | 4.19 | 1.35 |
| Psmd4 | 6 | qiagen single siRNA | 1.74 | 0.663 | 2.82 | 1.35 |
| Sv2a | 1 | ambion single siRNA | 3.87 (active) | 4.94 | 2.8 | -0.167 |
| Sv2a | 2 | ambion single siRNA | -2.64 (active) | -1.79 | -3.5 | -0.167 |
| Sv2a | 3 | ambion single siRNA | -0.202 | 1.46 | -1.86 | -0.167 |
| Sv2a | 4 | qiagen single siRNA | 1.45 | 0.572 | 2.33 | 2.05 |
| Sv2a | 5 | qiagen single siRNA | 3.09 (active) | 1.71 | 4.46 | 2.05 |
| Sv2a | 6 | qiagen single siRNA | 2.06 (active) | 2.37 | 1.76 | 2.05 |
| Numbl | 1 | ambion single siRNA | -0.593 | 0.109 | -1.29 | -1.29 |
| Numbl | 2 | ambion single siRNA | -3.19 (active) | -3.19 | – | -1.29 |
| Numbl | 3 | ambion single siRNA | -0.683 | 0.285 | -1.65 | -1.29 |
| Numbl | 4 | qiagen single siRNA | 1.55 | 1.81 | 1.29 | 0.162 |
| Numbl | 5 | qiagen single siRNA | -0.01 | -0.182 | 0.162 | 0.162 |
| Numbl | 6 | qiagen single siRNA | -5.76 (active) | -5.76 | – | 0.162 |
| Epo | 1 | ambion single siRNA | 0.172 | 0.128 | 0.216 | -1.8 |
| Epo | 2 | ambion single siRNA | -4.19 (active) | -3.72 | -4.66 | -1.8 |
| Epo | 3 | ambion single siRNA | -1.76 | -4.61 | 1.1 | -1.8 |
| Epo | 4 | qiagen single siRNA | 1.35 | 0.844 | 1.87 | 0.844 |
| Epo | 5 | qiagen single siRNA | -2.3 (active) | -2.3 | – | 0.844 |
| Epo | 6 | qiagen single siRNA | 0.542 | -1.49 | 2.57 | 0.844 |
| 4933431E20Rik | 1 | qiagen single siRNA | -0.0147 | -1.43 | 1.4 | -1.51 |
| 4933431E20Rik | 2 | qiagen single siRNA | -2.17 (active) | -1.48 | -2.87 | -1.51 |
| 4933431E20Rik | 3 | qiagen single siRNA | -2.96 (active) | -1.54 | -4.38 | -1.51 |
| Cks1b | 1 | ambion single siRNA | -0.0618 | -0.0849 | -0.0386 | -0.884 |
| Cks1b | 2 | ambion single siRNA | – | – | – | -0.884 |
| Cks1b | 3 | ambion single siRNA | -1.83 | -1.68 | -1.98 | -0.884 |
| Cks1b | 4 | qiagen single siRNA | 1.98 | 1.55 | 2.41 | 0.174 |
| Cks1b | 5 | qiagen single siRNA | -0.352 | 0.174 | -0.877 | 0.174 |
| Cks1b | 6 | qiagen single siRNA | -3.29 (active) | -3.29 | – | 0.174 |

A few values from the list:
Psmd4 #4, siRNA vendor or control pool qiagen single siRNA, p65 translocation z-score, replicate 2 → 1.51
Value of C9 #1, siRNA vendor or control pool ambion single siRNA in “p65 translocation z-score, replicate mean”: -4.17 (active)
For “p65 translocation z-score, replicate 1”, Pepf #2, siRNA vendor or control pool ambion single siRNA shows -1.37
